Values quoted from earlier work as cited in article PMC7099768, “A positron emission tomography imaging study to confirm target engagement in the lungs of patients with idiopathic pulmonary fibrosis following a single dose of a novel inhaled αvβ6 integrin inhibitor” (Respiratory Research, 2020).

Conditions: healthy participants; potentially clinically relevant doses; cited from earlier work

In the case of `Cc1cc(C)n(-c2cccc([C@H](CC(=O)O)CN3CC[C@@H](CCc4ccc5c(n4)NCCC5)C3)c2)n1` [GSK3008348, (S)-3-(3-(3,5-Dimethyl-1 H-pyrazol-1-yl)phenyl)-4-((R)-3-(2-(5,6,7,8-tetrahydro-1,8-naphthyridin-2-yl)ethyl)pyrrolidin-1-yl) butanoic acid], the “Pharmacokinetic profile, dose proportionality” value is listed as “dose proportional”.
